Our source for the binding values is paper PMC5432316.

Protein sequences, listed by entry. Tags and fused reporters are not part of them. Lines headed by an entry give the natural chain unless they say otherwise; changes in a name come on top.
UniProt P02454: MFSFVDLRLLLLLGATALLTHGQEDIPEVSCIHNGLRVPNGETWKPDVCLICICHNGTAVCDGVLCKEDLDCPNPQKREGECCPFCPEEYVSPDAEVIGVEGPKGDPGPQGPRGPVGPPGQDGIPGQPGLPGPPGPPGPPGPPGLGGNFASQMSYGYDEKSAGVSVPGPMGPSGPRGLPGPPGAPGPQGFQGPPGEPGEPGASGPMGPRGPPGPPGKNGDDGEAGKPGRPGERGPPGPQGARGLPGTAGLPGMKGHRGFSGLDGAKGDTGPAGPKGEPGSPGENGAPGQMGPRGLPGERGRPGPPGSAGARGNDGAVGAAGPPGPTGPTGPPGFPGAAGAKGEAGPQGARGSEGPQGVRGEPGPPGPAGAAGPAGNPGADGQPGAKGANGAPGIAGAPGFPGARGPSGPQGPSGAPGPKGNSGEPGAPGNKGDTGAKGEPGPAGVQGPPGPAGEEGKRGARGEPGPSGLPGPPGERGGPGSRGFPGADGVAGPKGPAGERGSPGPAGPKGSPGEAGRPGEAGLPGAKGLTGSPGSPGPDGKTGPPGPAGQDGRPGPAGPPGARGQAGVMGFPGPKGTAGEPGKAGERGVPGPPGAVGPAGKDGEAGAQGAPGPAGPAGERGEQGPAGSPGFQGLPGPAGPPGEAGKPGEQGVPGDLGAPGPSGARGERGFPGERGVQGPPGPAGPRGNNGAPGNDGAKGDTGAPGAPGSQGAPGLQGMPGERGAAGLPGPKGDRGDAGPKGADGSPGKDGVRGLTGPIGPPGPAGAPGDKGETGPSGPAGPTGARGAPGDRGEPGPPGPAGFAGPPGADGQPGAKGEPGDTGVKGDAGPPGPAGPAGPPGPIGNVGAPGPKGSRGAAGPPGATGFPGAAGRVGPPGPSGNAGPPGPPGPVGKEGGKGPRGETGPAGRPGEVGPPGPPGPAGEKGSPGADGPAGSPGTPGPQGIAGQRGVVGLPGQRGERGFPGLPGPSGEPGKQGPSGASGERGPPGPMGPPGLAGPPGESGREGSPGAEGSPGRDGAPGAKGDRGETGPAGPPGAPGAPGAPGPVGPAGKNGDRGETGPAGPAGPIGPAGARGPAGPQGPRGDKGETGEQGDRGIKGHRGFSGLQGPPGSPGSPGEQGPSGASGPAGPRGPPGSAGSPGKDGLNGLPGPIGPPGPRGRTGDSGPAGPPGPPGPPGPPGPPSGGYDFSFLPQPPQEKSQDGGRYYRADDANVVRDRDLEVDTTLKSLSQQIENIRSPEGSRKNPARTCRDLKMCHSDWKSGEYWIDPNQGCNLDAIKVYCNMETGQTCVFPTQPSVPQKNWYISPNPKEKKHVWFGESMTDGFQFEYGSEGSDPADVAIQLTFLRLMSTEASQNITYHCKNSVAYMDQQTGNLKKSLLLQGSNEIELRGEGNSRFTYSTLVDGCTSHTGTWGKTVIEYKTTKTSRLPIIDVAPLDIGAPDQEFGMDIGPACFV
UniProt P02466: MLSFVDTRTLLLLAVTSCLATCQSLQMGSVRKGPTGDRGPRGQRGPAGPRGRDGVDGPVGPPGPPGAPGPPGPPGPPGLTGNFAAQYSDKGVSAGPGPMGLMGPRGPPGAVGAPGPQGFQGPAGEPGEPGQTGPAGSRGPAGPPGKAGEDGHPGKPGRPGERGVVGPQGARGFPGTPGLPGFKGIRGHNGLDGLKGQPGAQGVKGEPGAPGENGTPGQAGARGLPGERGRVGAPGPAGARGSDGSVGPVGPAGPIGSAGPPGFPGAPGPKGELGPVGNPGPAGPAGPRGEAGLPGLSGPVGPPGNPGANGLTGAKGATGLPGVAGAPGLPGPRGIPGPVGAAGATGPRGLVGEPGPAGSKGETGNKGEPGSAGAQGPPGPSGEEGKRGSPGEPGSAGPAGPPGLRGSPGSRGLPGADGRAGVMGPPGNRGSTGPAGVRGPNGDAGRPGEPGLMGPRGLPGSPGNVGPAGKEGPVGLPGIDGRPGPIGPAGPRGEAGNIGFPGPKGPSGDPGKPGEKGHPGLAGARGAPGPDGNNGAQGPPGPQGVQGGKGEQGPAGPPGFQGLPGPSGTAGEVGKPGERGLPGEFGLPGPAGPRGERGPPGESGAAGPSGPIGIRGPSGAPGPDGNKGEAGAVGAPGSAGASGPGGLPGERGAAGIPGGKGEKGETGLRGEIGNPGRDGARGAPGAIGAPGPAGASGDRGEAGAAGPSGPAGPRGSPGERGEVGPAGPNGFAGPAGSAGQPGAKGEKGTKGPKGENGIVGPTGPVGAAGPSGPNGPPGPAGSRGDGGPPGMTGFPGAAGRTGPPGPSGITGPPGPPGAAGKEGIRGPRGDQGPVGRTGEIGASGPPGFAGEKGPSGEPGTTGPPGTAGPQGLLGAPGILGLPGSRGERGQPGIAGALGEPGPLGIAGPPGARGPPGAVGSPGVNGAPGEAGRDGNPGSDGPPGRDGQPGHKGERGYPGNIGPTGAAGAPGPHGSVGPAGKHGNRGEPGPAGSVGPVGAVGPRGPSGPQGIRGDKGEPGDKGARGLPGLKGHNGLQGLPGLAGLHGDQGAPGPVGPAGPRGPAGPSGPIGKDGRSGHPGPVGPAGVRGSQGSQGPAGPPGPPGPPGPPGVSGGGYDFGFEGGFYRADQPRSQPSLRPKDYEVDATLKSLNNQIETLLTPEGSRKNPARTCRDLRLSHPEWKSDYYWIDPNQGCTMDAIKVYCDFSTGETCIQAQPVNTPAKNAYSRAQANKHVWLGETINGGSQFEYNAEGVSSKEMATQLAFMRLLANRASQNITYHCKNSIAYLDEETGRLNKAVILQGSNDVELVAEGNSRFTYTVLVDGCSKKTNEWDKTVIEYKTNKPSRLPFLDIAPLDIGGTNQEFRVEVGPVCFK
UniProt P17301: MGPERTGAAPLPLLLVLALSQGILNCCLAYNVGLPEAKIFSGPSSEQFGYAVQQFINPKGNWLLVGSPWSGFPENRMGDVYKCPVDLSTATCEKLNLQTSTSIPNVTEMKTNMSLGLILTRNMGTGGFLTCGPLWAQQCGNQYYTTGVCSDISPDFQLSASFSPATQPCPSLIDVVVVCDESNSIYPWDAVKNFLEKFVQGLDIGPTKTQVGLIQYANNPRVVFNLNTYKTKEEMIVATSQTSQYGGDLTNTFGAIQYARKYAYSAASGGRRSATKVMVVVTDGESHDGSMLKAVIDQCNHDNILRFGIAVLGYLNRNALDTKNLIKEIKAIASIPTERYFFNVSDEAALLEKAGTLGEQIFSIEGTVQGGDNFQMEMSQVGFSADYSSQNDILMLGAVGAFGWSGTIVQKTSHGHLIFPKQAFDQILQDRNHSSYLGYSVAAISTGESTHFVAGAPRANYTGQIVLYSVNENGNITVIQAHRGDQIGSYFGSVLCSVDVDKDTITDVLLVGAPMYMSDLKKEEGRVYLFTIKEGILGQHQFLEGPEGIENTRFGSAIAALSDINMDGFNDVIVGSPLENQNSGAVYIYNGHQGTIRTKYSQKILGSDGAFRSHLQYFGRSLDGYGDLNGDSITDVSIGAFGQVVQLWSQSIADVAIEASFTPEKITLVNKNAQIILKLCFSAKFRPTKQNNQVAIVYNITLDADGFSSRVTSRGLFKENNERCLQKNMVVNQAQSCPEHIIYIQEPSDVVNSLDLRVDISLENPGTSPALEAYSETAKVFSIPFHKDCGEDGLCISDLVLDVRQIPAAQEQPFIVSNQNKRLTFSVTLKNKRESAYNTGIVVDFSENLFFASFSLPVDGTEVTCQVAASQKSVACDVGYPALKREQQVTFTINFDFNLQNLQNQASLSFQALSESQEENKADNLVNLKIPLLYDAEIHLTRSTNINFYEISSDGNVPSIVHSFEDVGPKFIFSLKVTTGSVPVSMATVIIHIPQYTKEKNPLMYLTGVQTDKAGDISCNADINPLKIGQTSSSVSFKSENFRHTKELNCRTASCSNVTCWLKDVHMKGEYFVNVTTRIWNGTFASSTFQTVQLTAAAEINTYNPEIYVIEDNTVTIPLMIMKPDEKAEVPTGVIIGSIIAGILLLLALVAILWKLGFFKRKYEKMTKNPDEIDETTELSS

The target of the experiment is Rat tail collagen type I (rat) (UniProt P02454+P02466). The experiment is described as follows: cell adhesion assay (CAFCA, Centrifugal Assay for Fluorescence-based Cell Adhesion); ligand as substrate in CAFCA miniplates; calcein AM-labelled cells centrifuged onto the substrate, 20 min at 37°C, then centrifuged at 500 rpm; bound cells read by fluorescence; for HaCat cells also with integrin blocking antibodies; only the target purified.

Results are given in words; binding and its absence hold for the method and conditions named. Some results given as binding are weak or reduced against the parent protein; the word gives no strength.

For the substance “α2β1 integrin on HaCat cells (from UniProt P17301 30-1181; P05556 21-798) (receptor)”, the binding result is reported as “binds”.
